Data published in publication PMC10333572.
No constants are given. Whether binding was seen depends on the method and setting. Binding seen in cells or lysates may run through a third protein. Some binding calls cover weakened binding; strength is not graded here. Where a sequence is shown, tags or fusion partners need not be part of it.

What was measured:
[1] = biological target: T1, extended pseudosubstrate peptide Biotin-Ahx-…-CONH2 with Y/E at Y14 (human); assay: pull-down; biotin-labeled extended PS peptides as bait; Myc-tagged aPKCι kinase domain fished from cell lysates; detected by blot; only the target purified
T1 sequence (peptide, N-terminal Biotin-Ahx; C-terminal amide (CONH2)): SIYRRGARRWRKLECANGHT

[2] = biological target: T2, extended pseudosubstrate peptide Biotin-Ahx-…-CONH2 with Y/F at Y14 (human); assay: as above
T2 sequence (peptide, N-terminal Biotin-Ahx; C-terminal amide (CONH2)): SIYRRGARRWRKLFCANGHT

binding [1]: no binding
binding [2]: binds
B1: Myc-tagged aPKCι kinase domain (domain or fragment, UniProt P41743 254-522)
chain: FDLLRVIGRGSYAKVLLVRLKKTDRIYAMKVVKKELVNDDEDIDWVQTEKHVFEQASNHPFLVGLHSCFQTESRLFFVIEYVNGGDLMFHMQRQRKLPEEHARFYSAEISLALNYLHERGIIYRDLKLDNVLLDSEGHIKLTDYGMCKEGLRPGDTTSTFCGTPNYIAPEILRGEDYGFSVDWWALGVLMFEMMAGRSPFDIVGSSDNPDQNTEDYLFQVILEKQIRIPRSLSVKAASVLKSFLNKDPKERLGCHPQTGFADIQGHPFF
